# Measurements published in the supplement of paper PMC6411743.
# The chains behind the UniProt entries cited, without tags or fusion partners. Where a name states a change or a piece, a line headed by the entry shows the natural chain unless it says otherwise.
# UniProt P21333, whole entry: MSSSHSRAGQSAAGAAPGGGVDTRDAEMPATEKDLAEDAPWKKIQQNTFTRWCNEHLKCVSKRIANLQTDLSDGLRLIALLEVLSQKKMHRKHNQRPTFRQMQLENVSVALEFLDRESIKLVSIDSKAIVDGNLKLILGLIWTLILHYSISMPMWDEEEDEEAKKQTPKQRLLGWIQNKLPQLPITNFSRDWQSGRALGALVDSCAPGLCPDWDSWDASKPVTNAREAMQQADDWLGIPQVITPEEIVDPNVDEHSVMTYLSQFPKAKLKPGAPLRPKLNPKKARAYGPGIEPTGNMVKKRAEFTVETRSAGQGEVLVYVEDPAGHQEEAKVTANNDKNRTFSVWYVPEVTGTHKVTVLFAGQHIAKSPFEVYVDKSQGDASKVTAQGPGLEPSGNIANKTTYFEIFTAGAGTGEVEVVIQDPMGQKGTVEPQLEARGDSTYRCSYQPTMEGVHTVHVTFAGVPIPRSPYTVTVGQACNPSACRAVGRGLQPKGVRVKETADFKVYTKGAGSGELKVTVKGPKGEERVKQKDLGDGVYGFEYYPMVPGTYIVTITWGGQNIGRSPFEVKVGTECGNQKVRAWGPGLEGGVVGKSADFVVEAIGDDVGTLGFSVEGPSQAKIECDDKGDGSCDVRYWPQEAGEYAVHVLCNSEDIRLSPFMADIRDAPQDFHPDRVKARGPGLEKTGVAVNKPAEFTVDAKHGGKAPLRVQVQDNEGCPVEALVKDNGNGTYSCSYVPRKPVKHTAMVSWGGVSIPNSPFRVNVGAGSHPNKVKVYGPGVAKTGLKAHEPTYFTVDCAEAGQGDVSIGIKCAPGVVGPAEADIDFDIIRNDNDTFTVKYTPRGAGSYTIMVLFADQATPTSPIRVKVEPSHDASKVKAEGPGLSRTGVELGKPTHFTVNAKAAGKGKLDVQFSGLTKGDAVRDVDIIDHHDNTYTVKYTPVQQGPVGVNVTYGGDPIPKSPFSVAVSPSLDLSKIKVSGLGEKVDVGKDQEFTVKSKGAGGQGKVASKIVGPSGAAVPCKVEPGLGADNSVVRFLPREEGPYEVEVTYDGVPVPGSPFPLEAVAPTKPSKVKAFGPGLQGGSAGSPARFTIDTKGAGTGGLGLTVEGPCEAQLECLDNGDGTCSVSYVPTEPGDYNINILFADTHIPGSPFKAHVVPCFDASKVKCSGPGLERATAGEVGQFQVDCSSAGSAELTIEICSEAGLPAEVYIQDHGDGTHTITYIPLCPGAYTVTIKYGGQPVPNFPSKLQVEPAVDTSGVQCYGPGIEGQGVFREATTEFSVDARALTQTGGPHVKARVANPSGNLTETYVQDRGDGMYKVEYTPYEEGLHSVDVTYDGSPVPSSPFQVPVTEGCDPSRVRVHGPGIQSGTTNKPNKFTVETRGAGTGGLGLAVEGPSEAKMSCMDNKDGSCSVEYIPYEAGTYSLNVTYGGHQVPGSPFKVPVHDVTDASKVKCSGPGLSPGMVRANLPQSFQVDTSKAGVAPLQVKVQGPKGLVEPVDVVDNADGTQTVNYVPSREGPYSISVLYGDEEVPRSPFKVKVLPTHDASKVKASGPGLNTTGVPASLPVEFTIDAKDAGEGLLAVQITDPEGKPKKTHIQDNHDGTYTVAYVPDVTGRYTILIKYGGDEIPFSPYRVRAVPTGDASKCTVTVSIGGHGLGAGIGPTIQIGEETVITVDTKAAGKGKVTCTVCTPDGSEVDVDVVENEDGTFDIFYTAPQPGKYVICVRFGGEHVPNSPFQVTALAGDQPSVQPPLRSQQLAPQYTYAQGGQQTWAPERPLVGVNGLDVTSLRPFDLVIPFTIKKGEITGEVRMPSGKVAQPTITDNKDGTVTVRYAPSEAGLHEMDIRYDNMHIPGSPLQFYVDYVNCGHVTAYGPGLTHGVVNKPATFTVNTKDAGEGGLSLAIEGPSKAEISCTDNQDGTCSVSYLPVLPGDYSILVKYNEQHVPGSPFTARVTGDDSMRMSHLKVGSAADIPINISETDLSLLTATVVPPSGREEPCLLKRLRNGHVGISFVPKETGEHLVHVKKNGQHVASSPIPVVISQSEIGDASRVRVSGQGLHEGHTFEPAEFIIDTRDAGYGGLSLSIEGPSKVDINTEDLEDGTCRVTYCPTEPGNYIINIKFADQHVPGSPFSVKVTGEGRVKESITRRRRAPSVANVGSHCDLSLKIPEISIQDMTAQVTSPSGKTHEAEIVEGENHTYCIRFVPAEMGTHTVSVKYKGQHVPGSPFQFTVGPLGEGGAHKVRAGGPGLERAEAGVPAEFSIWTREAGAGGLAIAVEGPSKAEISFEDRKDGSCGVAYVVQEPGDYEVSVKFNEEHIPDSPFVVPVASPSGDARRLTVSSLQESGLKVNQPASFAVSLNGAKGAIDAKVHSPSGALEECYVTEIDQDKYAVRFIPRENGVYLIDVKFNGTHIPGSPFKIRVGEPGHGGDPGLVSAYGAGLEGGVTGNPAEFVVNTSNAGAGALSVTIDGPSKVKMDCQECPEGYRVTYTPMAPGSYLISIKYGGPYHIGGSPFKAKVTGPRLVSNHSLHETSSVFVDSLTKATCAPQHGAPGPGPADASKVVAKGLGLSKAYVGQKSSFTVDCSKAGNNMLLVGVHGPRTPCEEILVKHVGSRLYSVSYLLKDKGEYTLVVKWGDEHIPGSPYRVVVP
# UniProt Q5J8M3, whole entry: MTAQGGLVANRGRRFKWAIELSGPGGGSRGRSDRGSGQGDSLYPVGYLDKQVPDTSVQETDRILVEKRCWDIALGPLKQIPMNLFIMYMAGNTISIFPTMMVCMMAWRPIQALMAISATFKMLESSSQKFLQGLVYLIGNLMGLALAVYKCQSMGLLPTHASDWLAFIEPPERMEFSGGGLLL
# UniProt Q14CW9: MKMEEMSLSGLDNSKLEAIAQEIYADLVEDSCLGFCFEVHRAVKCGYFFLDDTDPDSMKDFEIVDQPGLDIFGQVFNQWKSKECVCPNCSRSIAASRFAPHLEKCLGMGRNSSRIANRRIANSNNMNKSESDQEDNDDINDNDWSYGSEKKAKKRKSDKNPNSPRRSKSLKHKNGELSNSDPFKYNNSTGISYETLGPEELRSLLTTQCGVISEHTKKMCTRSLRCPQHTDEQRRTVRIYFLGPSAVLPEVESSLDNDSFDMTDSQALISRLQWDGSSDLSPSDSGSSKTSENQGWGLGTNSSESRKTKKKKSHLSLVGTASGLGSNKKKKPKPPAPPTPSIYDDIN
# UniProt Q9NVR2, whole entry: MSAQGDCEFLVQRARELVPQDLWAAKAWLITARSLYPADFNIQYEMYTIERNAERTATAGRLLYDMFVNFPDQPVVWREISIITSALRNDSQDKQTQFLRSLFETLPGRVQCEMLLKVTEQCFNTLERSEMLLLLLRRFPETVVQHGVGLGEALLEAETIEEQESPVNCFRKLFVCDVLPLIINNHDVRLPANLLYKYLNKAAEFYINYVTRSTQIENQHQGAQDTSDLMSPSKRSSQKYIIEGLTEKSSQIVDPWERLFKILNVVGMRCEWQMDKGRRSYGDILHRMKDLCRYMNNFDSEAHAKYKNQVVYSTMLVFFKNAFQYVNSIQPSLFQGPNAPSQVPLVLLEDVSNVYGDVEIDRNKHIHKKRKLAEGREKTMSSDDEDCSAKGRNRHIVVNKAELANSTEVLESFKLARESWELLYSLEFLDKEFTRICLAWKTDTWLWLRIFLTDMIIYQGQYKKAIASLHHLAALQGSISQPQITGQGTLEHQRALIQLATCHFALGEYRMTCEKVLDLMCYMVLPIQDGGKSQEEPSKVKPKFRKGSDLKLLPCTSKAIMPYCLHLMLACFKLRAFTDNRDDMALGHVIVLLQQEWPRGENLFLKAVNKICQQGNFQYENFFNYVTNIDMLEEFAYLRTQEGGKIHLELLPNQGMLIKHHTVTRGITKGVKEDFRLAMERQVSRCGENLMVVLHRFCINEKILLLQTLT
# UniProt P35236: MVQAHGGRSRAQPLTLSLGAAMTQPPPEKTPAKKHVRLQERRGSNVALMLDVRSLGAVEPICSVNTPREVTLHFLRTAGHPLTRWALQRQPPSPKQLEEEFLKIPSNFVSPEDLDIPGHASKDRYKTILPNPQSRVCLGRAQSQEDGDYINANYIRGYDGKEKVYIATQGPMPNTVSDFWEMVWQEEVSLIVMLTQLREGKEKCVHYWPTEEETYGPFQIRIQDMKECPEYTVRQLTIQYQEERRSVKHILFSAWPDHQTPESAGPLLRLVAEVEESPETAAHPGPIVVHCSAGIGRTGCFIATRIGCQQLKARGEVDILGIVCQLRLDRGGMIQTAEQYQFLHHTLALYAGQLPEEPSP
# UniProt Q9H0A8, whole entry: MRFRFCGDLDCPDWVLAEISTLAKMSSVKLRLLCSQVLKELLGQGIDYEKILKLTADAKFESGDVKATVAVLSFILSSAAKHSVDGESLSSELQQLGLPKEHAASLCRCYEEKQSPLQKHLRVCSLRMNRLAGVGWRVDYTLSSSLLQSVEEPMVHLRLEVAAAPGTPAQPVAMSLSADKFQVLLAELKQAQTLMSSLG
# UniProt Q96CD2: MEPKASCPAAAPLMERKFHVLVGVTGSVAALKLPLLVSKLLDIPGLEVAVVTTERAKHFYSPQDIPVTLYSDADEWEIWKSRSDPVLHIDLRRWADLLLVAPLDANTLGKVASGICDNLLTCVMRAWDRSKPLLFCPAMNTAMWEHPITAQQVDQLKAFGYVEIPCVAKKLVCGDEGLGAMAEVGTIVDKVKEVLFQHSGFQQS
# UniProt Q96Q05, whole entry: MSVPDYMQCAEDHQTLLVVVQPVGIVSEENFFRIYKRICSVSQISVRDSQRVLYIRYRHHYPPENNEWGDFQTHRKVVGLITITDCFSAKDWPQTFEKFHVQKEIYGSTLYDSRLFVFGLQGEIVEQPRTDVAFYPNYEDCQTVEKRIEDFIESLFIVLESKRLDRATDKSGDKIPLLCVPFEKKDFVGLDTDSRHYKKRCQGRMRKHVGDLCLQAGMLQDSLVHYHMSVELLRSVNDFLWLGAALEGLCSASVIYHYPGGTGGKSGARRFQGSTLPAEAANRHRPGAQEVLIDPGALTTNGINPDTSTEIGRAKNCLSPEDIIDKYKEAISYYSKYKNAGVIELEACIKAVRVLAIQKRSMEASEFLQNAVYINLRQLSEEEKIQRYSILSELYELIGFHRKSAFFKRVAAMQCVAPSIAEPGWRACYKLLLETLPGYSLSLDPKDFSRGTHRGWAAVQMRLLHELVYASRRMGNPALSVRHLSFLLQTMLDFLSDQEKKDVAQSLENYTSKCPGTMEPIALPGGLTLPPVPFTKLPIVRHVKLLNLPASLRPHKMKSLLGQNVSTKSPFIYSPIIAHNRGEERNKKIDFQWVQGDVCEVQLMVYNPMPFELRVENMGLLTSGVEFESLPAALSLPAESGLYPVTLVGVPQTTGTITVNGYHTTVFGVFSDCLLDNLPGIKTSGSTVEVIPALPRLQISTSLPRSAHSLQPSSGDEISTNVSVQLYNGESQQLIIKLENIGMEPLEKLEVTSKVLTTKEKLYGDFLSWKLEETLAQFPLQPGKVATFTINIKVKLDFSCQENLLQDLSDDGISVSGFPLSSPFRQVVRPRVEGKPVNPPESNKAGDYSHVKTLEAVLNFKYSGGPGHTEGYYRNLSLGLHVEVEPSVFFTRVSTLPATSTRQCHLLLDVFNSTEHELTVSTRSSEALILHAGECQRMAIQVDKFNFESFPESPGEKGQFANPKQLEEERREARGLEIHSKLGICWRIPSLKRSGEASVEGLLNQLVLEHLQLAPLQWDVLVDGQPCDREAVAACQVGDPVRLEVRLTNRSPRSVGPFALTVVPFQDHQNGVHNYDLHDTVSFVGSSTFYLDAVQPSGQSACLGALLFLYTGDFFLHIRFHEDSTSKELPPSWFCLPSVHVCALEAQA
# UniProt P41567, whole entry: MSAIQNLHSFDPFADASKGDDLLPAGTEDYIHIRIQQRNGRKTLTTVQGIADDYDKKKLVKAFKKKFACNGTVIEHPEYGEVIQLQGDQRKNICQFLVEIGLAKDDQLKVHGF
# UniProt Q7Z569: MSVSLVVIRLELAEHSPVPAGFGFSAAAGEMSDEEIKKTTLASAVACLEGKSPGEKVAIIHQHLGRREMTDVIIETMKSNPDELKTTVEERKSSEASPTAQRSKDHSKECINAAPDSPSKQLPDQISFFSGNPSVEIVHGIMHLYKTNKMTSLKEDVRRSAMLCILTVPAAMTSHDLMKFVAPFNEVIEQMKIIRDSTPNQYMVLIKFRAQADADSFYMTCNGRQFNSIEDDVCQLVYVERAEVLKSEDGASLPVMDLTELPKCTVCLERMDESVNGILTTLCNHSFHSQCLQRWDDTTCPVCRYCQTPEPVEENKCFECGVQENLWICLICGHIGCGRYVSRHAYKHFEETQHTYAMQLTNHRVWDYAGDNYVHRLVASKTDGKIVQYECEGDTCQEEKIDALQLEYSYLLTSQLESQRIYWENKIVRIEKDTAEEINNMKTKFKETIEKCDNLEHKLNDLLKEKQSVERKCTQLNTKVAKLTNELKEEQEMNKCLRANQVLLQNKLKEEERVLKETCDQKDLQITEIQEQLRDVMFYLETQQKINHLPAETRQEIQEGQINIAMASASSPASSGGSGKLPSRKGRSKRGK
# ± gives the standard deviation of the averaged measurements. Some of the results follow.
# Compound: Nc1nc2c(ncn2[C@@H]2O[C@H](COP(=O)(O)OP(=O)(O)OP(=O)(O)O)[C@@H](O)[C@H]2O)c(=O)[nH]1 [guanosine triphosphate]
# Experiment: NP40-soluble protein abundance relative to vehicle (solubility fold change) (ratio); higher = more soluble protein in presence of GTP
# Outline: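 Crude Jurkat lysate, prepared by Dounce homogenisation, was exposed to eight concentrations from 0.1 to 10 mM for 10 min at room temperature and then 3 min at 37 °C. Solubilisation used 0.8% NP40 with benzonase for 60 min at 4 °C, followed by ultracentrifugation and TMT labelling of the supernatant for LC-MS/MS. After vsn normalisation of intensities, each value is the fold change against the detergent-processed vehicle within each replicate, across three independent experiments.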
Target,NP40-soluble protein abundance (concentration: 0.1mM),NP40-soluble protein abundance (concentration: 0.5mM),NP40-soluble protein abundance (concentration: 1mM),NP40-soluble protein abundance (concentration: 2mM),NP40-soluble protein abundance (concentration: 4mM),NP40-soluble protein abundance (concentration: 6mM),NP40-soluble protein abundance (concentration: 8mM),NP40-soluble protein abundance (concentration: 10mM)
K7ENL9 and related entries (UniProt Q96DM3),1.05 ± 0.053,1.07 ± 0.046,0.982 ± 0.032,0.989 ± 0.096,0.985 ± 0.036,0.968 ± 0.048,0.961 ± 0.072,0.948 ± 0.072
H0Y5C6 and related entries (UniProt P21333),0.969 ± 0.051,0.999 ± 0.037,0.979 ± 0.036,0.924 ± 0.035,0.918 ± 0.03,0.934 ± 0.03,0.96 ± 0.05,0.922 ± 0.046
H0YK61 and related entries (UniProt Q5J8M3),0.947 ± 0.014,1.012 ± 0.0041,1.03 ± 0.092,0.999 ± 0.038,0.956 ± 0.042,0.961 ± 0.029,1.07 ± 0.018,0.981 ± 0.033
H3BPE7 and related entries (UniProt P35637),0.939 ± 0.046,0.966 ± 0.11,1.1 ± 0.077,1.13 ± 0.12,1.22 ± 0.12,1.24 ± 0.13,1.3 ± 0.12,1.4 ± 0.13
K7EKG9 and related entries (UniProt Q14CW9),1.1 ± 0.08,1.11 ± 0.11,1.24 ± 0.066,1.15 ± 0.032,1.17 ± 0.042,1.15 ± 0.087,1.22 ± 0.058,1.19 ± 0.12
H3BS58 and related entries (UniProt Q9BSU1),1.06 ± 0.078,1.01 ± 0.041,0.972 ± 0.025,1.02 ± 0.043,1.04 ± 0.035,0.971 ± 0.037,0.976 ± 0.023,0.876 ± 0.011
K7EJB9 and related entries (UniProt P27797),0.935 ± 0.064,0.958 ± 0.052,0.946 ± 0.075,0.885 ± 0.081,0.879 ± 0.097,0.882 ± 0.086,0.892 ± 0.07,0.872 ± 0.073
H0YBW3 and related entries (UniProt Q9NVR2),1.1 ± 0.049,0.938 ± 0.17,1.19 ± 0.22,1.04 ± 0.17,1.3 ± 0.32,1.04 ± 0.07,1.27 ± 0.21,0.996 ± 0.12
J3KNV1 and related entries (UniProt O60281),1.06 ± 0.041,1.05 ± 0.095,1.12 ± 0.066,1.09 ± 0.13,1.02 ± 0.051,1.04 ± 0.15,1.07 ± 0.057,1.05 ± 0.036
J3KR55 and related entries (UniProt P35236),1 ± 0.052,1.05 ± 0.03,0.974 ± 0.044,1 ± 0.041,0.949 ± 0.056,0.955 ± 0.036,0.951 ± 0.053,0.979 ± 0.084
J3QT09 and related entries (UniProt Q9BQF6),1.01 ± 0.16,1.01 ± 0.15,0.959 ± 0.13,0.943 ± 0.068,1.02 ± 0.21,0.986 ± 0.11,0.959 ± 0.13,0.943 ± 0.12
H3BM91 and related entries (UniProt Q9H0A8),1.06 ± 0.067,1.02 ± 0.1,0.969 ± 0.097,1 ± 0.15,1.01 ± 0.11,0.925 ± 0.1,0.923 ± 0.05,0.9065 ± 0.007
J3KQL8 and related entries (UniProt Q9BQE5),0.987 ± 0.019,1.01 ± 0.041,0.984 ± 0.054,0.956 ± 0.058,0.917 ± 0.044,0.982 ± 0.05,0.957 ± 0.045,0.928 ± 0.051
I3L1H5 and related entries (UniProt Q9BZG8),0.986 ± 0.14,0.954 ± 0.076,0.947 ± 0.058,0.955 ± 0.089,0.908 ± 0.065,0.877 ± 0.14,0.933 ± 0.051,0.902 ± 0.056
H3BRQ0 and related entries (UniProt Q96CD2),0.9802 ± 0.0077,0.959 ± 0.041,0.975 ± 0.037,0.89 ± 0.034,0.933 ± 0.056,0.878 ± 0.037,0.882 ± 0.13,0.867 ± 0.023
H0YBR0 and related entries (UniProt Q96Q05),1.08 ± 0.0046,1.14 ± 0.05,1.01 ± 0.026,1.02 ± 0.061,1.06 ± 0.11,0.996 ± 0.02,0.974 ± 0.035,0.945 ± 0.051
UniProt H3BN98,0.923 ± 0.017,0.858 ± 0.049,0.708 ± 0.05,0.77 ± 0.13,0.7751 ± 0.0041,0.743 ± 0.098,0.743 ± 0.15,0.851 ± 0.024
G5E9C2 and related entries (UniProt Q15653),1.04 ± 0.12,0.975 ± 0.12,0.999 ± 0.07,0.984 ± 0.07,0.982 ± 0.054,0.95 ± 0.069,0.9806 ± 0.0057,0.947 ± 0.03
K7EM18 and related entries (UniProt P41567),0.846 ± 0.071,0.834 ± 0.097,0.938 ± 0.1,1.03 ± 0.11,1.08 ± 0.2,1.09 ± 0.15,1.09 ± 0.053,1.27 ± 0.12
J3KNN7 and related entries (UniProt Q7Z569),1.12 ± 0.03,1.11 ± 0.12,1.15 ± 0.057,1.12 ± 0.1,1.15 ± 0.18,1.13 ± 0.067,1.14 ± 0.076,1.12 ± 0.11

# Random excerpt: two entries already listed, in no set order.
Target,NP40-soluble protein abundance (concentration: 0.1mM),NP40-soluble protein abundance (concentration: 0.5mM),NP40-soluble protein abundance (concentration: 1mM),NP40-soluble protein abundance (concentration: 2mM),NP40-soluble protein abundance (concentration: 4mM),NP40-soluble protein abundance (concentration: 6mM),NP40-soluble protein abundance (concentration: 8mM),NP40-soluble protein abundance (concentration: 10mM)
K7EKG9 and related entries (UniProt Q14CW9),1.1 ± 0.08,1.11 ± 0.11,1.24 ± 0.066,1.15 ± 0.032,1.17 ± 0.042,1.15 ± 0.087,1.22 ± 0.058,1.19 ± 0.12
H0YBR0 and related entries (UniProt Q96Q05),1.08 ± 0.0046,1.14 ± 0.05,1.01 ± 0.026,1.02 ± 0.061,1.06 ± 0.11,0.996 ± 0.02,0.974 ± 0.035,0.945 ± 0.051
